Measured values published in publication doi:10.1101/2020.01.09.899237.
These are yes or no findings as the source states them, for the method shown. Some entries that bind do so weakly or less than the wild type.

Columns and labels:
[1] = target: DnaJB8 C-terminal domain CTD_(170-232) (human) (UniProt Q8NHS0); experiment: SEC-MALS
[2] = target: FITC-labelled JD_(1-77) (human) (UniProt Q8NHS0); experiment: fluorescence polarisation
[3] = target: DnaJB8 C-terminal domain CTD_(170-232) (human) (UniProt Q8NHS0); experiment: cross-linking

binding [1]: no binding (tested: 6.6 mg/mL)
binding [2]: binds
binding [3]: no binding (tested: 100μM)
B1: DnaJB8 C-terminal domain CTD_(170-232) (domain or fragment, UniProt Q8NHS0 170-232)
chain: GGSSSGSSGFKSVMSSTEMINGHKVTTKRIVENGQERVEVEEDGQLKSVTVNGKEQLKWMDSK
